Results: paper PMC6600216
Results are given in words; binding and its absence hold for the method and conditions named. Binding seen in cells or lysates may run through a third protein. Some entries that bind do so weakly or less than the wild type. For part of these data: Where a sequence is shown, tags or fusion partners need not be part of it.

Key:
[1] = target: T1, Flag-tagged fragment of SHIP2 (residues 424–727) with the IPP5c domain (human) (UniProt O15357); assay: pull-down; Flag-tagged full-length or truncated SHIP2 overexpressed in HEK293T cells and endogenous IRTKS; the text says the Flag proteins pull down IRTKS, the legend that they were pulled down by endogenous IRTKS
T1 sequence: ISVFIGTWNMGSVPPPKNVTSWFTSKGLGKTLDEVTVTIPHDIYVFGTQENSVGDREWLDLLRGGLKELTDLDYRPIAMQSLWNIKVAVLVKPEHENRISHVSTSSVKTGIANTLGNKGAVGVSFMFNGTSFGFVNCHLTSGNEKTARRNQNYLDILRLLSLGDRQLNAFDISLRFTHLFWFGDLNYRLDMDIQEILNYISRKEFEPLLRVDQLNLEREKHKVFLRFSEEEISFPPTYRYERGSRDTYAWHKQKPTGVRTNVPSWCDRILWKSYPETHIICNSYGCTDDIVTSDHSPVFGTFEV

[2] = target: T2, Flag-tagged full-length SHIP2 (human) (UniProt O15357); assay: as above
T2 sequence: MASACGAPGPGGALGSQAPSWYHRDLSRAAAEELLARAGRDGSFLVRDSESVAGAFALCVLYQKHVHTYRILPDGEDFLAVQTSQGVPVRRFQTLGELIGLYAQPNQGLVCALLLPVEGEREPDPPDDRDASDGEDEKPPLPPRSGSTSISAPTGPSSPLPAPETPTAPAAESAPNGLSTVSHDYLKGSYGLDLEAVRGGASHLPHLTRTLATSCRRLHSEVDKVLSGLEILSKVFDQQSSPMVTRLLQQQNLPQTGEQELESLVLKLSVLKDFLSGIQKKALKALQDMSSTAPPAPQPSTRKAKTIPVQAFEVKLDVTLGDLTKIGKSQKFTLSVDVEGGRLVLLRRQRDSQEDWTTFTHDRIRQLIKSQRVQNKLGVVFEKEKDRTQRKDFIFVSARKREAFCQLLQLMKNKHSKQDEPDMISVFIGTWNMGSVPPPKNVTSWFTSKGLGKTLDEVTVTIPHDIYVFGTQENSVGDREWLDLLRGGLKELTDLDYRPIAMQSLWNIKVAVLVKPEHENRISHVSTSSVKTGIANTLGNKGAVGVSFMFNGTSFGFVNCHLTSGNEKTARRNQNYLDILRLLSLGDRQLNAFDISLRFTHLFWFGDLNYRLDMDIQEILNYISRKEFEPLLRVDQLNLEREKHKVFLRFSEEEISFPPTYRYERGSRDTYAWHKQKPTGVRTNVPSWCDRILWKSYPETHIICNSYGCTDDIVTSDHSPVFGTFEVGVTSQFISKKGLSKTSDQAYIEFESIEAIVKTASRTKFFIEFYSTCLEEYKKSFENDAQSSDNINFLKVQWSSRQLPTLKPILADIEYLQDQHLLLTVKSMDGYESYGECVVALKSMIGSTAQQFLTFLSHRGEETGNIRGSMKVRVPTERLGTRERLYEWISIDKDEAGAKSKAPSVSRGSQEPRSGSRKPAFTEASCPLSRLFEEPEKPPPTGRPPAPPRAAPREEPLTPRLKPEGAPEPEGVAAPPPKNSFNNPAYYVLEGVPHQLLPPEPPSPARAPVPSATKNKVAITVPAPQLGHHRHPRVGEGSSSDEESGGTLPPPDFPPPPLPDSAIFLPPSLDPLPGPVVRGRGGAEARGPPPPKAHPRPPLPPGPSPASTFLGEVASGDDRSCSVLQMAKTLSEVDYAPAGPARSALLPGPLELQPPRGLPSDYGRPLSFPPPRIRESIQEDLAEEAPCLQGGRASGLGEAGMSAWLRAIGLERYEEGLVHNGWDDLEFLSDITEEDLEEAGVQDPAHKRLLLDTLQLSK

[3] = target: T3, SHIP2, endogenous human (human (endogenous in HepG2, SK-Hep-1, Huh7, HEK293T)) (UniProt O15357); assay: co-IP; lysates (1 mg total protein) of HepG2, SK-Hep-1 and Huh7 cells, also serum-starved and stimulated with insulin for the indicated times; anti-IRTKS or anti-SHIP2 antibody (1 ug) at 4 °C overnight, protein-G beads 4 h; IgG as negative control; immunoblot
T3 sequence: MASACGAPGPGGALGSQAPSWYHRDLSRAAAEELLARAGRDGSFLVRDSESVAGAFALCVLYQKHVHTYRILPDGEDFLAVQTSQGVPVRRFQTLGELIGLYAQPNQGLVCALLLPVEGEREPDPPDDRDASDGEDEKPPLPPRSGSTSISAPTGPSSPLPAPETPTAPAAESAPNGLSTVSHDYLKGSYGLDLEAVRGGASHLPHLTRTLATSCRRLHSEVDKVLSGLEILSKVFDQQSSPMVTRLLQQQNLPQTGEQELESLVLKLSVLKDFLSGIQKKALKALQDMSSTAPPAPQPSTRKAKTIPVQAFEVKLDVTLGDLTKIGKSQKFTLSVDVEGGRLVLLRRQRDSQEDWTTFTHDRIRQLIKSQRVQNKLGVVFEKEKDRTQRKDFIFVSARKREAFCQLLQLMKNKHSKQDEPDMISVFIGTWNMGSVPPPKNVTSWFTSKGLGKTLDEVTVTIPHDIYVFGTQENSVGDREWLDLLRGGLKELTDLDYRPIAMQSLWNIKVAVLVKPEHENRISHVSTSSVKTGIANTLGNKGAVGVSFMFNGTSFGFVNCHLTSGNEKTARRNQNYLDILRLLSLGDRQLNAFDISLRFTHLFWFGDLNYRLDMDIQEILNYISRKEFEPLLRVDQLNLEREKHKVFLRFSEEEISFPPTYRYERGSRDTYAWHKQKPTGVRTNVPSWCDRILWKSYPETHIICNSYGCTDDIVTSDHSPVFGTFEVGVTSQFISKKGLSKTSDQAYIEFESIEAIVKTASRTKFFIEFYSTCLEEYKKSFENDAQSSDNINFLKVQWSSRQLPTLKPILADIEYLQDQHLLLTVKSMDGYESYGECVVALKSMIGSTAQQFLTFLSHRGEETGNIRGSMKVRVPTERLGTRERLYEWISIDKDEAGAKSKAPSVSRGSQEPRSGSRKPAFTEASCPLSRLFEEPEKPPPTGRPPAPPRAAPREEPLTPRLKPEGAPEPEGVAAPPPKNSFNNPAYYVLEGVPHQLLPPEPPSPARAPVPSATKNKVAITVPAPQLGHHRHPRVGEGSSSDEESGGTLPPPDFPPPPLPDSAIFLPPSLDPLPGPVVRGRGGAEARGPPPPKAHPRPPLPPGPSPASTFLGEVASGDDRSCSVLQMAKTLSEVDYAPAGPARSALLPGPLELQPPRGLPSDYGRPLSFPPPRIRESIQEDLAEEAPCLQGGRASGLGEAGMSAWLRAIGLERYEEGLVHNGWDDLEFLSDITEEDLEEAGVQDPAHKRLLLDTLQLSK

binding [1]: binds
binding [2]: binds
binding [3]: binds
B1: IRTKS, endogenous human (protein, UniProt Q9UHR4 1-511)
chain: MSRGPEEVNRLTESTYRNVMEQFNPGLRNLINLGKNYEKAVNAMILAGKAYYDGVAKIGEIATGSPVSTELGHVLIEISSTHKKLNESLDENFKKFHKEIIHELEKKIELDVKYMNATLKRYQTEHKNKLESLEKSQAELKKIRRKSQGSRNALKYEHKEIEYVETVTSRQSEIQKFIADGCKEALLEEKRRFCFLVDKHCGFANHIHYYHLQSAELLNSKLPRWQETCVDAIKVPEKIMNMIEEIKTPASTPVSGTPQASPMIERSNVVRKDYDTLSKCSPKMPPAPSGRAYTSPLIDMFNNPATAAPNSQRVNNSTGTSEDPSLQRSVSVATGLNMMKKQKVKTIFPHTAGSNKTLLSFAQGDVITLLIPEEKDGWLYGEHDVSKARGWFPSSYTKLLEENETEAVTVPTPSPTPVRSISTVNLSENSSVVIPPPDYLECLSMGAAADRRADSARTTSTFKAPASKPETAAPNDANGTAKPPFLSGENPFATVKLRPTVTNDRSAPIIR
